Reference: publication doi:10.1101/2025.06.01.657267, “IFITM1 and IFITM3 cooperate to restrict virus entry in endolysosomes” (bioRxiv, 2025)
No constants are given. Whether binding was seen depends on the method and setting. Binding seen in cells or lysates may run through a third protein. Some results given as binding are weak or reduced against the parent protein; the word gives no strength.

Sequences of proteins named here, by UniProt entry; tags and fusion partners are left off. A change or cut given only in a name is not applied to a line headed by its entry.
UniProt Q01628: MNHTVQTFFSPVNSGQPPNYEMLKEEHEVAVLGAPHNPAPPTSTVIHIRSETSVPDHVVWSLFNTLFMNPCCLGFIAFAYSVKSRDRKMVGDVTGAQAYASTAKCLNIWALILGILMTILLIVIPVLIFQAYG
UniProt Q01629: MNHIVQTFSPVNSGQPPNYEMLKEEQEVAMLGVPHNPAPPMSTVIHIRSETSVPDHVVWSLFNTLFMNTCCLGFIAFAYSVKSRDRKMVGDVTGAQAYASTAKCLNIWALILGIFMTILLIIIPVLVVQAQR
UniProt P13164: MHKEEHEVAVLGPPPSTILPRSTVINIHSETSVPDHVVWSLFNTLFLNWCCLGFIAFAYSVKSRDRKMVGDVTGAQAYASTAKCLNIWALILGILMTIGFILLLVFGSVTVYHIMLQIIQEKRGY

What was measured:
FLAG-IFITM3 G95L (human) [1] = molecular target: FLAG-IFITM3 G95L (human) (UniProt Q01628); test: proximity ligation; HEK293T transiently transfected with FLAG-IFITM1 WT and FLAG-IFITM3 WT or G95L, fixed and permeabilized; anti-IFITM1 and anti-IFITM3; confocal microscopy
FLAG-IFITM3 WT (human) [2] = molecular target: FLAG-IFITM3 WT (human) (UniProt Q01628); test: as above
[3] = molecular target: endogenous IFITM2 (human (endogenous in HeLa)) (UniProt Q01629); test: co-IP; anti-IFITM2 immunoprecipitation from whole cell lysates of HeLa untreated or treated with 100 or 500 units IFNb for 18 hours; immunoblot with anti-IFITM1 and anti-IFITM3
[4] = molecular target: endogenous IFITM3 (human (endogenous in HEK293T, primary human nasal epithelial cells and HeLa)) (UniProt Q01628); test: proximity ligation; HeLa and HeLa IFITM3 knockout cells, fixed and permeabilized; endogenous proteins; anti-IFITM1 and anti-IFITM3
[5] = molecular target: endogenous IFITM3 (human (endogenous in HEK293T, primary human nasal epithelial cells and HeLa)) (UniProt Q01628); test: co-IP; anti-IFITM3 immunoprecipitation from whole cell lysates of HEK293T treated with 100 units IFNb for 18 hours; immunoblot with anti-IFITM1
[6] = molecular target: endogenous IFITM3 (human (endogenous in HEK293T, primary human nasal epithelial cells and HeLa)) (UniProt Q01628); test: co-IP; anti-IFITM3 immunoprecipitation from whole cell lysates of HeLa untreated or treated with 100 units IFNb for 18 hours; immunoblot with anti-IFITM1
[7] = molecular target: endogenous IFITM3 (human (endogenous in HEK293T, primary human nasal epithelial cells and HeLa)) (UniProt Q01628); test: proximity ligation; HEK293T untreated or treated with 100 units IFNb for 18 hours, fixed and permeabilized; endogenous proteins; anti-IFITM1 and anti-IFITM3
FLAG-IFITM3 G95L (human) [8] = molecular target: FLAG-IFITM3 G95L (human) (UniProt Q01628); test: co-IP; anti-FLAG immunoprecipitation from whole cell lysates of HEK293T stably expressing FLAG-IFITM3 WT or G95L; Dynabeads Protein G, 4°C; immunoblot with anti-IFITM1
FLAG-IFITM3 WT (human) [9] = molecular target: FLAG-IFITM3 WT (human) (UniProt Q01628); test: as above
[10] = molecular target: endogenous IFITM3 (human (endogenous in HEK293T, primary human nasal epithelial cells and HeLa)) (UniProt Q01628); test: co-IP; anti-IFITM3 immunoprecipitation from whole cell lysates of primary human nasal epithelial cells untreated or treated with 100 units IFNb for 18 hours; immunoblot with anti-IFITM1

Measured: binding

FLAG-IFITM1 WT (from UniProt P13164 1-125)
binds: FLAG-IFITM3 G95L (human) [1] | FLAG-IFITM3 WT (human) [2]

endogenous IFITM3 (from UniProt Q01628 1-133)
binds: [3]

endogenous IFITM1 (from UniProt P13164 1-125)
binds: [4] | [5] | [6] | [7] | FLAG-IFITM3 G95L (human) [8] | FLAG-IFITM3 WT (human) [9] | [3] | [10]
